# Out of some 5,500 compounds screened, about 2,000 (36%) were called active. Only results without a clear call are listed here; the source files them as inconclusive. Rule as the data show it: active = normalized growth mostly below about 0.91 (no sharp cut-off); inconclusive = no clear call, values can overlap the other calls; inactive = mostly above about 0.92.
# Test: chemical genetic growth profiling, strain panel (AID 1159580);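 also: tested at 20 µM; growth read once vehicle control cultures reached saturation at 30 °C; 1 = growth at the plate median or of vehicle wells; lower values mean less growth of the strain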
# Conditions: S. cerevisiae deletion strains, growth OD, locus YOL012C, strain htz1
row,SMILES,normalized growth
1,CN(CCCl)CCCl,inconclusive: 0.189

# Source: PubChem BioAssay AID1159580 (chemical genetic matrix, 2015)
